Laboratory results from ChEMBL document CHEMBL3351454, “Design, synthesis, antimicrobial evaluation and molecular docking studies of some new thiophene, pyrazole and pyridone derivatives bearing sulfisoxazole moiety” (2014).

System: Escherichia coli
Assay: Antimicrobial activity against Escherichia coli RCMB 010052 assessed as inhibition zone at 5 mg/ml after 24 hrs
Assay type: functional
In short: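 Agar diffusion on nutrient agar seeded with 10^6 CFU/mL bacteria. Filter-paper disks were loaded with 100 µL of a 5 mg/mL compound solution in DMF, with a DMF-only control. Incubation was 37 °C for 24 h. Inhibition zone in mm (mean ± SD, triplicate plates) was measured beyond the 6 mm diameter.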

GENTAMICIN showed an inhibition zone (IZ) of 19.9 mm.
